Source: patent US20050256081A1, “Tetracycline derivatives for the treatment of ocular pathologies” (priority 2004, published 2005)

Tests used:
[1] = system: corneal neovascularization; test: Silver nitrate cauterization corneal neovascularization model, single agents (Example 5); type: in vivo, Long Evans pigmented rats; details: topical two times daily for 7 days, 7th day; same concentrations as for neovascularization
[2] = system: corneal neovascularization; test: Silver nitrate cauterization corneal neovascularization model, doxycycline concentrations and pH (Example 4); type: in vivo, Long Evans pigmented rats; details: score 0 to +3
Text: Thirty-six eyes belonging to thirty-six male Long Evans pigmented rats (200 g to 250 g) were divided into […] groups. Treated eyes were topically administered doxycycline at the following concentrations and having the indicated pH values: 0.05%^w/v (pH 3.3), 0.1%^w/v (pH 3.1), 1%^w/v (pH 2.3), 2%^w/v (pH 2.1), 2%^w/v (adjusted to pH of 7.4). One eye of each animal served as a treated eye and the other eye served as a non-treated control eye. Artificial corneal bums were induced. All the eyes were examined to exclude any eyes with corneal scars and/or neovascularization prior to induction.
Neovascularization was induced in all eyes using silver nitrate cauterization. The animals were first anesthetized by intraperitoneal injection of a mixture of ketamine hydrochloride (25 mg/kg) with xylazine hydrochloride (5 mg/kg). The cornea was then anesthetized by a drop of 0.5% proparacaine and allowed to dry.
The presence of new vessels (neovascularization) and the extent of new vessel formation was assessed by slit lamp photography and histology. Inhibition of vessel proliferation was evaluated by measuring vessel progression from the outer cornea (corneal limbus) into the cornea. As previously described, it will be appreciated that any reduction of new vessel proliferation and/or regression of existing vessels is therapeutic, and that complete inhibition and/or regression is not required, and also that reduction indudes regression of existing vessels.
Neovascularization was evaluated by an examiner who was blinded as to the treatment groups to minimize the observer bias.
The animals were euthanized in a carbon dioxide chamber under deep general anesthesia. The eyes were enucleated and fixed in 10% formaldehyde.
Corneal neovascularization was assessed by scanning (Cano scan 9900F, Canon, Tokyo Japan) the slit lamp photographs into high resolution digital images. […] The percentage area of the cornea covered by the corneal scar in each eye was also determined. A drawing of corneal blood vessels was made to compare with digital photos and ensure that no vascular area was omitted during calculation of percent area.
Statistical analyses were performed using each animal as an experimental unit with Statistical Analysis System (SPSS 11.5) software. Kruscal-Vallis and Mann-Whitney U Analysis was conducted and treatment means were separated at p<0.05 with least significant difference (LSD) test. A p value <0.05 was considered significant.
For histopathologic evaluation, sedated animals were euthanized with inhaled CO2 and enucleation was performed immediately. […] The eyes were prepared for histological examination using 10% formaldehyde. […] The corneas were then soaked in xylene and paraffin, and later embedded in paraffin and cut at […] for staining with hematoxylin and eosin (H&E) for light microscopy.
Light microscopic examination was performed on every microscopic section.

Compound	Percent Area Of Scar Mean ± SD [1] [%]	Burn stimulus score (Mean ± SD) ([2]; 0.05% w/v doxycycline, pH 3.3)	Burn stimulus score (Mean ± SD) ([2]; 0.1% w/v doxycycline, pH 3.1)	Burn stimulus score (Mean ± SD) ([2]; 1% w/v doxycycline, pH 2.3)	Burn stimulus score (Mean ± SD) ([2]; 2% w/v doxycycline adjusted to pH 7.4)	Burn stimulus score (Mean ± SD) ([2]; 2% w/v doxycycline, pH 2.1)
CC[C@@H]1/C=C(\C)C[C@H](C)C[C@H](OC)[C@H]2O[C@@](O)(C(=O)C(=O)N3CCCC[C@H]3C(=O)O[C@H](/C(C)=C/[C@@H]3CC[C@@H](O)[C@H](OC)C3)[C@H](C)[C@@H](O)CC1=O)[C@H](C)C[C@@H]2OC [ascomycin]	16.7 ± 8.2					
low molecular weight heparin	15.5 ± 2.2					
CC(C(=O)[O-])c1ccc(-c2ccccc2)c(F)c1.O.O.[Na+] (racemic) [flurbiprofen, sodium (±)-2-(2-fluoro-4-biphenylyl)-propionate dihydrate]	18.8 ± 5.2					
CC1c2cccc(O)c2C(=O)C2=C(O)C3(O)C(=O)C(C(N)=O)=C(O)C(N(C)C)C3C(O)C21.O (stereo not drawn) [doxycycline, 4-(dimethylamino)-1,4,4a,5,5a,6,11,12a-octahydro3,5,10,12,12a-pentahydroxy-6-methyl-1,11-dioxo-2-naphthacenecarboxamide monohydrate]	16.7 ± 2.8	2.83 ± 0.4	3 ± 0	2.66 ± 0.51	2.83 ± 0.4	3 ± 0
